Patent US11850286B2, “Sulfamide linker, conjugates thereof, and methods of preparation” (priority 2014, dated 2023)

Experiments:
[1] = test system: trastuzumab-N3 (compound 13b); assay: Conjugation of linker-conjugates to trastuzumab-N3, conversion by MS; conditions: trastuzumab-N3 (13b), rt, Tris buffer pH 7.5
[2] = test system: trastuzumab-F2-GalNAz (compound 13c); assay: Conjugation of linker-conjugates to trastuzumab-F2-GalNAz, conversion by MS; conditions: trastuzumab-F2-GalNAz (13c) per FIG. 13b/14b
[3] = test system: trastuzumab(N300C); assay: Competition conjugation of 17 vs 18 to trastuzumab(N300C); conditions: 6 eq. each of 17 and 18, 1 hour at room temperature, MS-analysis

| Compound | Conversion (%) ([1]; 30′) | Conversion (%) ([1]; 60′) | Conversion (%) ([1]; 90′) | Conversion (%) ([1]; 120′) | Conversion (%) ([1]; 960′) | Conversion (%) ([1]; 240′) | Conversion (%) ([2]; 30′) | Conversion (%) ([2]; 60′) | Conversion (%) ([2]; 120′) | Conversion (%) ([2]; 240′) | Conversion (%) ([2]; 3600′) | Fc-fragment conjugated to maleimide [3] |
| --- | --- | --- | --- | --- | --- | --- | --- | --- | --- | --- | --- | --- |
| O=C(CCOCCOCCOCCOCCOCCOCCOCCOCCNC(=O)c1ccc2ccc3cccc4ccc1c2c34)NCCC(=O)N1Cc2ccccc2C#Cc2ccccc21 [Compound 28, DIBAC-PEG8-pyrene] | 30% | 40% | 60% | 65% | 65% | – | – | – | – | – | – | – |
| O=C(CCCCCCNC(=O)OCC1C2CCC#CCCC21)NCc1ccccc1 (centres unmarked) [Compound 19, BCN-Heptanoic Acid Benzylamide] | 0% | 0% | – | – | – | 10% | – | – | – | – | – | – |
| COc1cc2cc(c1Cl)N(C)C(=O)C[C@H](OC(=O)[C@H](C)N(C)C(=O)CCCCCNC(=O)CCOCCOCCOCCOCCNC(=O)OCC1C3CCC#CCCC31)[C@]1(C)O[C@H]1[C@H](C)[C@@H]1C[C@@](O)(NC(=O)O1)[C@H](OC)/C=C/C=C(\C)C2 (some centres unmarked) [Compound 30] | 75% | >90% | – | >95% | >95% | – | 25% | 40% | 65% | 95% | 95% | – |
| CN(C(=O)OCCCCCNC(=O)OCC1C2CCC#CCCC21)S(=O)(=O)NCc1ccccc1 (centres unmarked) [Compound 22] | 0% | 5% | – | 10% | – | 30% | – | – | – | – | – | – |
| O=C(CCOCCOCCOCCOCCNC(=O)c1ccc2ccc3cccc4ccc1c2c34)NCCC(=O)N1Cc2ccccc2C#Cc2ccccc21 [Compound 27, DIBAC-PEG4-pyrene] | 20% | 25% | 30% | 30% | 30% | – | – | – | – | – | – | – |
| COc1cc2cc(c1Cl)N(C)C(=O)C[C@H](OC(=O)[C@H](C)N(C)C(=O)CCCCCNC(=O)CCOCCOCCOCCOCCOCCOCCOCCOCCOCCOCCOCCOCCNC(=O)OCC1C3CCC#CCCC31)[C@]1(C)O[C@H]1[C@H](C)[C@@H]1C[C@@](O)(NC(=O)O1)[C@H](OC)/C=C/C=C(\C)C2 (some centres unmarked) [Compound 31] | 25% | 45% | – | 60% | 95% | – | 5% | 10% | 15% | 50% | 50% | – |
| COc1cc2cc(c1Cl)N(C)C(=O)C[C@H](OC(=O)[C@H](C)N(C)C(=O)CCCCCNC(=O)CCOCCOCCOCCOCCOCCOCCOCCOCCOCCOCCOCCOCCOCCOCCOCCOCCOCCOCCOCCOCCOCCOCCOCCOCCNC(=O)OCC1C3CCC#CCCC31)[C@]1(C)O[C@H]1[C@H](C)[C@@H]1C[C@@](O)(NC(=O)O1)[C@H](OC)/C=C/C=C(\C)C2 (some centres unmarked) [Compound 32] | 20% | 35% | – | 70% | 85% | – | <5% | 5% | 10% | 80% | 80% | – |
| O=C(NS(=O)(=O)NCc1ccc2ccc3cccc4ccc1c2c34)OCCCCCN1C(=O)C=CC1=O [Compound 18, Maleimide-Pyrene Derivative] | – | – | – | – | – | – | – | – | – | – | – | Approximately 45% |
| O=C(CCOCCOCCOCCOCCOCCOCCOCCOCCNC(=O)OCC1C2CCC#CCCC21)NCc1ccc2ccc3cccc4ccc1c2c34 (centres unmarked) [Compound 25, BCN-PEG8-pyrene] | 20% | 20% | 30% | 60% | 80% | – | – | – | – | – | – | – |
| O=C(CCCCCCNC(=O)OCC1C2CCC#CCCC21)NS(=O)(=O)NCc1ccccc1 (centres unmarked) [Compound 20] | 80% | 90% | – | 95% | – | >95% | – | – | – | – | – | – |
| O=C(NCc1ccc2ccc3cccc4ccc1c2c34)OCCOCCNS(=O)(=O)NC(=O)OCC1C2CCC#CCCC21 (centres unmarked) [Compound 26, BCN-sulfamide-pyrene] | 70% | 80% | 85% | 95% | 100% | – | – | – | – | – | – | – |
| O=C(CCOCCOCCOCCOCCNC(=O)OCC1C2CCC#CCCC21)NCc1ccc2ccc3cccc4ccc1c2c34 (centres unmarked) [Compound 24, BCN-dPEG4-Pyrene] | 0% | 10% | 20% | 30% | 80% | – | – | – | – | – | – | – |
| DIBAC-sulfamide-pyrene [Compound 29] | 60% | 70% | 80% | 85% | 90% | – | – | – | – | – | – | – |
| O=C(NCCCCCOC(=O)NS(=O)(=O)NCc1ccccc1)OCC1C2CCC#CCCC21 (centres unmarked) [Compound 21] | – | 60% | – | – | – | 90% | – | – | – | – | – | – |
